Each structure is given as a SMILES string. The list does not hold the whole screen: it covers a few groups of compounds. Not every dose and run of a compound is shown. T/C: endpoint of the treated group in % of that of the vehicle group. Some entries give survivors of the animals treated and no T/C: the source files T/C as zero there, which appears to mark a toxic dose or a test without result, not a measured value. Some doses without a T/C left all or most animals alive at the check, yet need not have been tolerated: the source hardly ever lists a survival T/C far under the control, and the zero likely stands for such cases as well. Counts of survivors are from the toxicity check (mostly the fifth day) where no day follows; animals may have died later. Schedule codes are those of the source, read here as Q, the interval in days (D) or hours (H), X, the number of doses. Where survival is the endpoint, this PubChem deposit counts one and a half times the control or more as active, and values a quarter to a half above the control carry no call in these data; other NCI protocols may use other cut-offs. Some entries hold several experiments; their values stand side by side, smallest first. Some entries show no survivor count and are marked so; the dose need not have been tolerated. Some T/C values carry the count of animals alive at the toxicity check (mostly the fifth day); without a count or a note in brackets, all were alive then.

The assay has as its system CD2F1 mice, L1210 leukemia ip, survival T/C. The assay can be described thus: NCI In Vivo Anticancer Drug Screen. Data for tumor model L1210 Leukemia (intraperitoneal) in CD2F1 (CDF1) mice. The note with it: T/C endpoint: mean survival time, higher T/C = longer survival. In short, it runs like this:
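Ratio T/C, where T is the treated-group value and C the vehicle-dosed control value, from mice implanted with a transplantable tumor.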

The mark [1] stands for this setting: dose: 62.5 mg/kg/injection, schedule: Q01DX001 (ip), vehicle: distilled water + Tween-80.
The mark [2] stands for this setting: dose: 100.0 mg/kg/injection, schedule: Q01DX001 (ip), vehicle: saline.
Where [3] appears, read: dose: 200.0 mg/kg/injection, schedule: Q01DX001 (ip), vehicle: saline.
[4] abbreviates: dose: 400.0 mg/kg/injection, schedule: Q01DX001 (ip), vehicle: saline.
The mark [5] stands for this setting: dose: 100.0 mg/kg/injection, schedule: Q01DX009 (ip), vehicle: saline with Tween-80.

Consider `Cc1c([N+](=O)[O-])c(C)c(S(=O)(=O)c2c(C)c([N+](=O)[O-])c(C)c([N+](=O)[O-])c2C)c(C)c1[N+](=O)[O-]`, for which the T/C (dose: 100.0 mg/kg/injection, schedule: Q04DX003 (ip), vehicle: saline with Tween-80) was 93 % of control; the T/C (dose: 200.0 mg/kg/injection, schedule: Q04DX003 (ip), vehicle: saline with Tween-80) was 102 % of control; the T/C (dose: 400.0 mg/kg/injection, schedule: Q04DX003 (ip), vehicle: saline with Tween-80) is 95 % of control.
`NC1CCCCC1.O=P(O)(N(CCCl)CCCl)N1CCOCC1`: the T/C is, setting by setting: (dose: 62.5 mg/kg/injection, schedule: Q01DX010 (ip), vehicle: saline) 104 % of control; (dose: 125.0 mg/kg/injection, schedule: Q01DX010 (ip), vehicle: saline) 127 % of control; (dose: 250.0 mg/kg/injection, schedule: Q01DX010 (ip), vehicle: saline) 148 % of control; (dose: 500.0 mg/kg/injection, schedule: Q01DX010 (ip), vehicle: saline) 119 % of control.
For the molecule `O=CC1COP(=O)(N(CCCl)CCCl)N1` (stereo not given), the T/C is, setting by setting: (dose: 15.62 mg/kg/injection, schedule: Q01DX001 (ip), vehicle: DMSO) 104 % of control; (dose: 31.25 mg/kg/injection, schedule: Q01DX001 (ip), vehicle: DMSO) 95 % of control; (dose: 62.5 mg/kg/injection, schedule: Q01DX001 (ip), vehicle: DMSO) 97 % of control; (dose: 125.0 mg/kg/injection, schedule: Q01DX001 (ip), vehicle: DMSO) 97 % of control; (dose: 250.0 mg/kg/injection, schedule: Q01DX001 (ip), vehicle: DMSO) 95 % of control; (dose: 500.0 mg/kg/injection, schedule: Q01DX001 (ip), vehicle: DMSO) 98 % of control.
With `NC(=O)N/N=C/CCOP(N)(=O)N(CCCl)CCCl` (stereo not given), the T/C was 104 % of control (dose: 10.94 mg/kg/injection, schedule: Q01DX001 (ip), vehicle: DMSO); 104 % of control (dose: 21.88 mg/kg/injection, schedule: Q01DX001 (ip), vehicle: DMSO); 117 % of control (dose: 43.75 mg/kg/injection, schedule: Q01DX001 (ip), vehicle: DMSO); 122 % of control (dose: 87.5 mg/kg/injection, schedule: Q01DX001 (ip), vehicle: DMSO); 128 % of control (dose: 175.0 mg/kg/injection, schedule: Q01DX001 (ip), vehicle: DMSO); 144 % of control (dose: 350.0 mg/kg/injection, schedule: Q01DX001 (ip), vehicle: DMSO). In addition, the T/C (dose: 700.0 mg/kg/injection, schedule: Q01DX001 (ip), vehicle: DMSO) is 164 % of control.
With `CP(=O)(O)O`, the T/C is, setting by setting: (dose: 100.0 mg/kg/injection, schedule: Q01DX009 (ip), vehicle: saline) 107 % of control [survivor count not shown]; (dose: 200.0 mg/kg/injection, schedule: Q01DX009 (ip), vehicle: saline) 93 % of control [survivor count not shown].
As for `Cc1ccc(NP(=O)(Cl)N(CCCl)CCCl)cc1` (stereo not given), the T/C was 103 % of control (dose: 7.8 mg/kg/injection, schedule: Q01DX001 (ip), vehicle: distilled water + Tween-80); 107 % of control (dose: 15.6 mg/kg/injection, schedule: Q01DX001 (ip), vehicle: distilled water + Tween-80); 108 % of control (dose: 31.3 mg/kg/injection, schedule: Q01DX001 (ip), vehicle: distilled water + Tween-80); 108 % of control under setting [1]; 96 and 107 % of control (dose: 125.0 mg/kg/injection, schedule: Q01DX001 (ip), vehicle: distilled water + Tween-80). Besides, the survivor count is, setting by setting: under setting [1], 6 of 6; (dose: 250.0 mg/kg/injection, schedule: Q01DX001 (ip), vehicle: distilled water + Tween-80) 6 of 6; (dose: 500.0 mg/kg/injection, schedule: Q01DX001 (ip), vehicle: distilled water + Tween-80) 6 of 6.
Take `CCCOP(=S)(N=C(N)N)OCCC`: the T/C reads like this: under setting [2], 100 % of control; (dose: 100.0 mg/kg/injection, schedule: Q04DX003 (ip), vehicle: saline) 102 % of control; under setting [3], 97 % of control; (dose: 200.0 mg/kg/injection, schedule: Q04DX003 (ip), vehicle: saline) 100 % of control; under setting [4], 100 % of control [5 of 6 alive]; (dose: 400.0 mg/kg/injection, schedule: Q04DX003 (ip), vehicle: saline) 101 % of control [5 of 6 alive].
For the molecule `COC(=O)c1ccccc1C[N+](C)(CCCl)CCCl`, the T/C is 106 % of control (dose: 3.0 mg/kg/injection, schedule: Q01DX009 (ip), vehicle: saline sonified); 125 % of control (dose: 4.35 mg/kg/injection, schedule: Q01DX009 (ip), vehicle: saline); 104 % of control (dose: 4.4 mg/kg/injection, schedule: Q01DX009 (ip), vehicle: saline sonified); 106 % of control (dose: 6.6 mg/kg/injection, schedule: Q01DX009 (ip), vehicle: saline sonified); 107 % of control (dose: 15.0 mg/kg/injection, schedule: Q01DX009 (ip), vehicle: saline sonified).
On to `CCCCOP(=O)(CCC)OCCCC`, for which the T/C (dose: 25.0 mg/kg/injection, schedule: Q01DX009 (ip), vehicle: saline) was 96 % of control [survivor count not shown]; the T/C (dose: 50.0 mg/kg/injection, schedule: Q01DX009 (ip), vehicle: saline) is 98 % of control [survivor count not shown]; the T/C under setting [5] is 100 % of control [survivor count not shown].
Turning to `CSc1ncc(COP(=S)(Cl)Cl)c(N)n1`, under setting [2], the T/C was 98 % of control. Further, the survivor count was 2 of 6 under setting [3] and 0 of 6 under setting [4].
Consider `NP(=O)(Oc1ccc([N+](=O)[O-])cc1)N(CCCl)CCCl` (stereo not given), for which the T/C (dose: 62.5 mg/kg/injection, schedule: Q01DX001 (ip), vehicle: other) is 102 % of control; the T/C (dose: 125.0 mg/kg/injection, schedule: Q01DX001 (ip), vehicle: other) was 94 % of control [5 of 6 alive]; the T/C (dose: 250.0 mg/kg/injection, schedule: Q01DX001 (ip), vehicle: other) was 98 % of control [5 of 6 alive]. In addition, under “dose: 500.0 mg/kg/injection, schedule: Q01DX001 (ip), vehicle: other”, the survivor count is recorded as 0 of 6.
As to `CCCCNCCCN.O=[N+]([O-])c1cc([N+](=O)[O-])c(O)c([N+](=O)[O-])c1`, the T/C (dose: 100.0 mg/kg/injection, schedule: Q01DX001 (ip), vehicle: carboxymethylcellulose (CMC)) was 88 % of control [survivor count not shown].
Take `CCCCO[P+](=O)OCCCC`: the T/C runs as follows: under setting [5], 95 % of control; (dose: 200.0 mg/kg/injection, schedule: Q01DX009 (ip), vehicle: saline with Tween-80) 97 % of control. Moreover, the survivor count (dose: 400.0 mg/kg/injection, schedule: Q01DX009 (ip), vehicle: saline with Tween-80) is reported as 3 of 6.

These data come from PubChem BioAssay AID256 (DTP/NCI, 2004).
